Experimental data from PubChem BioAssay AID2685 (National Center for Advancing Translational Sciences (NCATS), 2010).
Among all 320,000 compounds or so, about 2,100 (0.66%) were called active. Inconclusive means that the source gave no clear call. Such entries were picked first, then a sample of the others. Calls follow the shape of the dose curve; as a rule, active = well fitted inhibition curve with a large enough effect in the signal ratio, with a control signal flat (not every such curve was filed as active); inconclusive = small, poorly fitted or top-dose-only effect, or effect the other way, or a change in a side signal; inactive = flat fitted curve, though single readings scatter; the % refers to the signal ratio. Potencies beside an inconclusive call are fits to weak or partial responses and may not hold up.

Assay: qHTS Assay for Lipid Storage Modulators in Drosophila S3 Cells
Conditions: BODIPY lipid droplet fluorescence, 18-24 h, cells fed with added oleic acid; lipid storage change, negative = inhibition: at 46.1 µM (top of the series) unless noted
Method in brief: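 Drosophila S3 cells loaded with oleic acid (400 uM, as added) and compounds at several concentrations; lipid droplets imaged by 488-nm laser-scanning cytometry, 500–530 nm intensity and object ratio to cell channel. Percent activity normalized to 20 uM Triacsin C.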
% is scaled to controls: 0 for no effect and ±100 for the full control effect; potency is read from the fitted curve at half-maximal effect.

SMILES	lipid storage change, negative = inhibition	Potency
CCCCn1c2ccc(C)cc2c2nnc(SCCN3CCCCC3)nc21	inconclusive: -30.4%	
C/C(CC(=O)Nc1ccc2c(c1)OCCO2)=N\NC(=O)COc1cccc(C)c1	inconclusive: 42.3%	
COc1ccc([N+](=O)[O-])cc1N(CC(O)CN(CC(C)C)CC(C)C)S(=O)(=O)c1ccc(C)cc1 (centres undefined)		inconclusive: 6.51 µM [activator, single point]
COc1ccc(CNC(=O)COc2cc(O)c3c(c2)OC(C)(C)CC3=O)c(OC)c1		inconclusive: 16.4 µM [falling, single point]
COc1ccccc1NC(=O)CC12CC3CC(CC(Br)(C3)C1)C2		inconclusive: 0.58 µM [falling, full curve]
COc1ccc(CCNC(=O)c2cc(-c3ccc(C)c(C)c3O)n[nH]2)cc1OC		inconclusive: 2.91 µM [falling, partial curve]
O=C(Nc1nc2ccccc2c(=O)[nH]1)c1ccccc1SCc1ccccc1	inconclusive: 7.1%	
COc1cc(/C=N/O)ccc1Oc1ccc([N+](=O)[O-])cc1[N+](=O)[O-]	inconclusive: 5.51%	
O=C(Cn1ccc([N+](=O)[O-])n1)NCc1nc2ccccc2[nH]1	inconclusive: -4.71%	
CCOC(=O)c1sc2nc3n(c(=O)c2c1C)CCC3	inactive	
NC(=O)c1cc2ccccc2o/c1=N/NC(=O)c1cccc(Cl)c1	inconclusive: 6.27%	
COc1ccc(-c2noc(COc3ccc(C)c(C)c3)n2)cc1OC		inconclusive: 1.16 µM [activator, full curve]
Cc1cc(Br)ccc1SCC(=O)OCC(=O)Nc1ccc2[nH]c(=O)[nH]c2c1		inconclusive: 3.66 µM [activator, partial curve, poor fit]
NC(=O)C1(c2ccccc2)CCCN1C(=O)c1ccccc1Br (centres undefined)	inconclusive: 24%	
CCOC(=O)c1[nH]c(C)c(C(=O)Nc2cccc(Cl)c2C)c1C		inconclusive: 5.8 µM [activator, partial curve, poor fit]
O=[N+]([O-])c1cccc(C2=NC(c3ccccc3)CO2)c1 (centres undefined)	inconclusive: -2.52%	
CS(=O)(=O)Nc1ccc(C(=O)NCCSc2ccc(Cl)cc2)cc1	inconclusive: 4.71%	
CC(C)N(C)C1CCN(C(=O)Nc2ccc(Cl)cc2)CC1	inconclusive: -2.92%	
Cc1nn(C)c(NC(=O)c2ccccc2Cl)c1Br	inconclusive: -6.06%	
O=C(C(NS(=O)(=O)c1cccc2nsnc12)c1ccccc1)N1CCN(c2ccccc2)CC1 (centres undefined)		inconclusive: 18.4 µM [falling, single point]
CCOC(=O)c1ccccc1NC(=S)N1CCCCC1	inconclusive: 7.42%	
CCn1cc(C(=O)OCC(=O)c2cc(C)n(-c3ccccc3)c2C)c(=O)c2ccc(C)nc21	inconclusive: 18.1%	
FC(F)(F)c1cccc(NCc2n[nH]c(=S)n2C2CCCCC2)c1	inconclusive: -7.56%	
CC1CN(C(=O)CSc2nc(N)cc(N)n2)CC(C)O1 (centres undefined)	inconclusive: -8.56%	
CC(C)(C)c1csc(NC(=O)c2ccc3nccnc3c2)n1	inconclusive: 13.7%	

SMILES	lipid storage change, negative = inhibition	Potency
Cc1ccc(NC(=O)CCN2C(=O)c3ccccc3Sc3ncccc32)cc1		inconclusive: 29.1 µM [rising, single point]
Cc1cc(C)n(-c2nc3ccccc3c(=O)n2OCC(=O)Nc2c(C)cccc2C)n1		inconclusive: 2.59 µM [activator, full curve]
O=C(NCCCn1ccnc1)c1ccc(C(F)(F)F)cc1	inconclusive: 38.4%	
CC(C)(C)C(=O)NC(=S)Nc1ccc(Cl)c(C(=O)O)c1	inconclusive: 8.27%	
COc1cc(NC(=O)C2CCC(CNc3c(N4CCC(C)CC4)c(=O)c3=O)CC2)cc(OC)c1 (centres undefined)		inconclusive: 18.4 µM [activator, single point]
Cc1nn(Cc2ccc(Cl)cc2)c(C)c1NC(=O)C1CC=CCC1C(=O)O (centres undefined)	inactive	
O=C(OCC(=O)N(C1CCCCC1)C1CCCCC1)c1ccc(Cl)nc1	inconclusive: 14%	
CNC(=S)SCCOc1ccccc1	inconclusive: 6.99%	
CCOC(=O)c1sc2nc(CC(=O)OC)nc(NCc3ccc(Cl)cc3)c2c1C		inconclusive: 1.84 µM [rising, partial curve]
Cc1cc(=O)[nH]c(SCC(=O)OCc2ccccc2)c1C#N		inconclusive: 2.91 µM [falling, partial curve]
N#CC(=C1CCCC1)c1nc(-c2cc3ccccc3oc2=O)cs1		inconclusive: 1.46 µM [activator, full curve, poor fit]
CC/C(=N\NC(=O)c1c(C)nc2ccccn12)c1ccccc1	inconclusive: 9.96%	
CN1CCN(C(c2ccc(Cl)cc2)c2cc(Cl)c3cccnc3c2O)CC1 (centres undefined)		inconclusive: 29.1 µM [activator, single point]
Clc1ccc(CN=C2Nc3ccccc3CS2)cc1	inconclusive: -25.3%	
O=C(CN1CCc2ccccc21)NC(=O)NCc1ccco1		active: 6.51 µM
CCOC(=O)c1nc(S(C)(=O)=O)ncc1N1CCOCC1	inconclusive: -0.948%	
Cc1ccc(NC(=O)CSc2nnc(Cc3ccccc3)o2)cc1	inconclusive: 6.27%	
Cc1ccc(S(=O)(=O)N2CCCCC2CCNC(=O)C(=O)NCC2CCCO2)cc1 (centres undefined)	inconclusive: 47.6%	
CCOC(=O)C1(Cc2ccccc2)CCCN(CCCn2cccn2)C1 (centres undefined)	inconclusive: 30.8%	
O=C(Nc1ccc(O)c2c(=O)cc(-c3cccc(Cl)c3)oc12)c1cccc(Cl)c1	inconclusive: 12%	
CCOc1ccc2nc(NC(=O)c3cc([N+](=O)[O-])ccc3N3CCOCC3)sc2c1		inconclusive: 0.259 µM [activator, full curve]
Cc1cc(C)cc(C(=O)Nc2ccc(N3CCN(C(=O)c4ccco4)CC3)cc2)c1	inconclusive: 27.3%	
COc1ccc(Cl)cc1S(=O)(=O)n1ccnc1C(C)C	inconclusive: -39.8%	
C=CCOC(=O)C1=C(C)NC(SC)=C(C#N)C1c1ccc(OCC)cc1 (centres undefined)	inconclusive: -30.2%	

Two of these compounds, reformatted:
SMILES | lipid storage change, negative = inhibition | Potency
Cc1cc(=O)[nH]c(SCC(=O)OCc2ccccc2)c1C#N |  | inconclusive: 2.91 µM [falling, partial curve]
Clc1ccc(CN=C2Nc3ccccc3CS2)cc1 | inconclusive: -25.3% | 
